Measurements from “University of Dundee, Small-Polar-MMV Screening Library” (2021), ChEMBL document CHEMBL3988442.

Mtb growth Cornell: 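Whole-cell assay for inhibitors of Mycobacterium tuberculosis growth, labelled Cornell in the record; the read-out is not stated. The concentration is filed as 10 mM, unlikely as a test dose, so the dose is not known. Higher means stronger inhibition (inferred from two other growth screens of the library). Of about 53,000 compounds tested this way, about 900 (1.7%) reached 50% or more in at least one test.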
Mtb heat-shock: 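Assay on Mycobacterium tuberculosis, filed only as a heat shock assay from Cornell; the read-out is not stated. The concentration is filed as 10 mM, unlikely as a test dose, so the dose is not known. The record gives no direction; compounds that gave an IC50 in retests scored well above the rest, so higher reads as stronger inhibition. Of about 69,000 compounds tested this way, about 930 (1.4%) reached 50% or more in at least one test.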

Each number is a percent effect as filed. How 0% and 100% were set is not recorded. Most values in the screen are low, and negative values occur. Compounds were drawn at random from those tested, without regard to their results.

{"compound": "COCCC(=O)N1CCn2cc(CN3CCN(C)CC3)nc2C1.O=C(O)C(F)(F)F.O=C(O)C(F)(F)F", "Mtb growth Cornell": 11.55, "Mtb heat-shock": -21.16}
{"compound": "Cn1cc(C2CC(=O)NC23CCN(Cc2nccs2)CC3)cn1", "stereo": "centres undefined", "Mtb growth Cornell": 27.92, "Mtb heat-shock": 11.17}
{"compound": "[H][C@@]12CN(CCCc3ccccc3)C[C@]1([H])OCC(=O)N2Cc1nccn1C", "Mtb growth Cornell": 7.962, "Mtb heat-shock": -22.4}
{"compound": "O=C1CCC(=O)N1c1nn(Cc2cccc(F)c2)cc1Cl", "Mtb growth Cornell": -9.854, "Mtb heat-shock": -2.045}
{"compound": "O=C(NCC(=O)N1CCCc2ccccc21)c1c(O)cc(F)cc1F", "Mtb heat-shock": 3.266}
{"compound": "[H][C@]12CC[C@@H](Nc3cccnn3)[C@@]1([H])CN(Cc1ccc3[nH]ccc3c1)C2", "Mtb growth Cornell": 29.75, "Mtb heat-shock": -7.259}
{"compound": "O=C(O)C(F)(F)F.O=C(O)C(F)(F)F.O=C(O)C(F)(F)F.c1cc(CN2CCOCC3(C2)CN(Cc2nccs2)CCO3)ccn1", "stereo": "centres undefined", "Mtb growth Cornell": 1.173, "Mtb heat-shock": -11.01}
{"compound": "CN(C)C(CNCc1nc(-c2ccsc2)no1)c1ccsc1", "stereo": "centres undefined", "Mtb heat-shock": 7.741}
{"compound": "Cc1ccc([C@@H]2CN(C(=O)c3ccsc3)C[C@H]2NC(=O)C2CC2)cc1", "Mtb heat-shock": 13.41}
{"compound": "CCc1nc(C(=O)N2CCN(C)c3ccccc32)c[nH]1", "Mtb growth Cornell": 16.92, "Mtb heat-shock": 12.72}
{"compound": "CC(C)N(C)CC(=O)NC1CCc2nccn2C1", "stereo": "centres undefined", "Mtb growth Cornell": -5.824, "Mtb heat-shock": -3.465}
{"compound": "CNS(=O)(=O)Cc1cccc(CNC(=O)Nc2cn[nH]c2)c1", "Mtb heat-shock": 0.05201}
{"compound": "CCCS(=O)(=O)c1ncc(CN2CCC(CO)CC2)n1CC1CCCO1", "stereo": "centres undefined", "Mtb growth Cornell": 9.106, "Mtb heat-shock": 13.88}
{"compound": "CS(=O)(=O)N1CCC2(CCCN(c3ncc(F)cn3)C2)C1", "stereo": "centres undefined", "Mtb growth Cornell": -28.67, "Mtb heat-shock": -9.935}
{"compound": "Cc1ccc(-c2nnc(CN3CCCC(O)(CO)CC3)o2)n1C", "stereo": "centres undefined", "Mtb heat-shock": -26.38}
{"compound": "NC(=O)C1CCN(CCc2ccc(NC(=O)C3CC3)cc2)CC1", "Mtb heat-shock": -6.76}
{"compound": "NCC(CO)Cc1ccc(OC(F)(F)F)cc1", "stereo": "centres undefined", "Mtb growth Cornell": 12.4, "Mtb heat-shock": -9.264}
{"compound": "O=C(O)CN1CCOCC(Cc2ccc(Cl)cc2)C1", "stereo": "centres undefined", "Mtb growth Cornell": -49.54, "Mtb heat-shock": -0.2733}
{"compound": "CC(Nc1ccc(CCN2CCOCC2)cc1)C(=O)N(C)CCC#N", "stereo": "centres undefined", "Mtb heat-shock": -25.89}
{"compound": "COCC[C@]1(O)CCN(CC(=O)NCc2ccccn2)C[C@H]1C", "Mtb heat-shock": 9.085}
{"compound": "CC(C)Cc1nc(CS(=O)(=O)c2ccccc2)no1", "Mtb heat-shock": 10.6}
{"compound": "CCn1ccnc1CN1CCCC(CO)(Cc2cccc(Cl)c2)C1", "stereo": "centres undefined", "Mtb growth Cornell": 24.99, "Mtb heat-shock": 15.14}
{"compound": "CCN1CCC(N2CCN(C)C3(CCC(=O)N(CCOC)CC3)C2)CC1", "stereo": "centres undefined", "Mtb growth Cornell": -10.29, "Mtb heat-shock": 17.14}
{"compound": "CN(C)CC1CN(Cc2coc(-c3ccc(Cl)cc3)n2)CCO1", "stereo": "centres undefined", "Mtb growth Cornell": -5.071, "Mtb heat-shock": -26.44}
{"compound": "Cc1ccccc1C1(C(=O)N2CCCC(n3cncn3)C2)CC1", "stereo": "centres undefined", "Mtb growth Cornell": 9.366, "Mtb heat-shock": -18.85}
{"compound": "c1ccc(-c2nnc(CNCCn3cccn3)o2)cc1", "Mtb growth Cornell": 16.76, "Mtb heat-shock": 5.396}
{"compound": "COCCCNC(=O)Cn1c(-c2cccc(Cl)c2)nc(C)cc1=O", "Mtb growth Cornell": -1.308, "Mtb heat-shock": 10.79}
{"compound": "CC1CN(C)CCN1C(=O)Nc1nc(-c2cccn2C)cs1", "stereo": "centres undefined", "Mtb heat-shock": 0.7647}
{"compound": "COCCN1CCN(S(=O)(=O)c2ccccc2)Cc2cccnc21.O=C(O)C(F)(F)F", "Mtb growth Cornell": 12.13, "Mtb heat-shock": 8.486}
{"compound": "O=C(Cc1ccc(F)cc1)NCc1ccc(C(=O)O)o1", "Mtb heat-shock": -17.04}
{"compound": "[H][C@@]12CCN(c3ncccn3)[C@@]1([H])CCN2Cc1cccs1", "Mtb growth Cornell": 20.77, "Mtb heat-shock": -9.043}
{"compound": "NC(=O)CN1CC2(CCC1=O)CCN(Cc1ccccc1F)CC2", "Mtb growth Cornell": 2.699, "Mtb heat-shock": 0.4495}
{"compound": "NC(=O)c1ccc(C(=O)N2CCCC(n3ccnc3)C2)s1", "stereo": "centres undefined", "Mtb heat-shock": -22.85}
{"compound": "OCc1nnc2n1CCN(c1cnccn1)C2", "Mtb growth Cornell": 16.75, "Mtb heat-shock": 19.72}
{"compound": "O=C(NCc1ccccc1)NCC(O)c1cccc(F)c1", "stereo": "centres undefined", "Mtb growth Cornell": -10.44, "Mtb heat-shock": -22.79}
{"compound": "CCN(C)C(=O)CCN(C)Cc1cnc(C)s1", "Mtb growth Cornell": 19.49, "Mtb heat-shock": 7.626}
{"compound": "CCc1nc(C)c(C(=O)N2CCCC(c3noc(C)n3)C2)s1", "stereo": "centres undefined", "Mtb growth Cornell": 5.763, "Mtb heat-shock": -12.24}
{"compound": "CC(C)Oc1cc(N2CCC(N3CCC(O)CC3)CC2)nc(N)n1", "Mtb heat-shock": -2.038}